Assay results published in the supplement of paper PMC10727501.
The other results are listed elsewhere or left out. This data set is noisy: repeats of one test often differ as much as different tests do.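 Researchers measured free-swimming zebrafish larvae's O-bend response probability to dark flashes (naive: first five; training: remaining flashes of four 60-flash blocks; test: later 60-flash block) and OMR turning toward alternating leftward/rightward LED motion. Six treated larvae were compared to sixty 0.1% DMSO controls, with |SSMD|≥2 marking a hit.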

What was measured:
Conditions in all cases: 10 µM; pre-incubation: 30-90 min
[1] = system: Danio rerio larvae (5 dpf, TLF); assay: OMR-Perf (SSMD vs DMSO vehicle); higher = higher than vehicle (e.g. higher dark-flash O-bend response probability, or better optomotor performance)
[2] = system: Danio rerio larvae (5 dpf, TLF); assay: Prob-Test (SSMD vs DMSO vehicle); higher = higher than vehicle (e.g. higher dark-flash O-bend response probability, or better optomotor performance)
[3] = system: Danio rerio larvae (5 dpf, TLF); assay: Prob-Naive (SSMD vs DMSO vehicle); higher = higher than vehicle (e.g. higher dark-flash O-bend response probability, or better optomotor performance)
[4] = system: Danio rerio larvae (5 dpf, TLF); assay: Prob-Train (SSMD vs DMSO vehicle); higher = higher than vehicle (e.g. higher dark-flash O-bend response probability, or better optomotor performance)

Structure (SMILES)	OMR-Perf [1]	Prob-Test [2]	Prob-Naive [3]	Prob-Train [4]
Cc1ccc(CNc2ncnc3ccc(-c4ccc(CO)o4)cc23)o1	-0.0831	0.162	-0.102	-0.127
C=CC1=C(C(=O)O)N2C(=O)[C@@H](NC(=O)/C(=N\O)c3csc(N)n3)[C@H]2SC1 [Cefdinir]	-0.268	-0.153	0.292	0.113
C=CCc1cc(OC)c(O)c(C(=O)NCCO)c1 [Alibendol]	-0.56	-0.0688	0.517	-0.307
CC1=C(C(=O)OC(C)C)C(c2cccc([N+](=O)[O-])c2)C(C(=O)OC2CN(C(c3ccccc3)c3ccccc3)C2)=C(N)N1 (stereo not drawn) [Azelnidipine]	-0.679	-1.76	-0.199	-1.36
CCNC(=O)c1noc(-c2cc(C(C)C)c(O)cc2O)c1-c1ccc(CN2CCOCC2)cc1	0.142	-0.000572	-0.214	0.323
C[C@H](N)[C@H](O)c1cccc(O)c1 [Metaraminol Bitartrate]	-0.00672	-0.0887	0.433	0.0899
O=C([O-])[C@H](CC(=O)N1C[C@H]2CCCC[C@H]2C1)Cc1ccccc1.O=C([O-])[C@H](CC(=O)N1C[C@H]2CCCC[C@H]2C1)Cc1ccccc1.[Ca+2] [Mitiglinide calcium]	-0.0967	-0.328	0.421	-0.206
Cn1cnc(-c2cc3nccc(Oc4ccc(NC(=S)NC(=O)Cc5ccccc5)cc4F)c3s2)c1	-0.693	-0.575	-0.0595	-0.6
CC(C)n1nc(-c2cc3cc(O)ccc3[nH]2)c2c(N)ncnc21	-0.196	-0.0472	0.249	0.37
CC(C)NC[C@H](O)COc1ccc(CCOCC2CC2)cc1.Cl [Levobetaxolol HCl]	0.43	0.154	0.0551	0.0867
COc1cc2c(cc1OC)C(=O)C(CC1CCN(Cc3ccccc3)CC1)C2.Cl (stereo not drawn) [Donepezil HCl (Aricept)]	-0.377	0.933	-0.492	1.01
Cc1nc(NC(=O)N2CCC[C@H]2C(N)=O)sc1-c1ccnc(C(C)(C)C(F)(F)F)c1	0.0687	-0.248	0.0692	-0.137
O=C1Nc2cc(Br)ccc2/C1=C1/Nc2ccccc2/C1=N/O	-0.724	-1.04	-0.842	-1.2
O=C(NC1CCOCC1)c1ccc(-c2cc(-c3c[nH]nc3-c3ccccn3)ccn2)cc1	-0.523	0.27	-0.232	0.24
CS(=O)(=O)N1CCc2c(-c3cnc(N)nc3)nc(N3CCOCC3)nc21	-0.478	-0.0136	0.285	0.227
CCN(CC)CC#CCOC(=O)C(O)(c1ccccc1)C1CCCCC1 (stereo not drawn) [Oxybutynin (Ditropan)]	-0.748	-0.427	0.13	-1.19
Cc1cc(OCCCS(C)(=O)=O)cc(C)c1-c1cccc(COc2ccc3c(c2)OC[C@H]3CC(=O)O)c1.Cc1cc(OCCCS(C)(=O)=O)cc(C)c1-c1cccc(COc2ccc3c(c2)OC[C@H]3CC(=O)O)c1.O	-0.174	0.036	-0.599	-1.06
CCOC(=O)C1OC1C(=O)NC(CC(C)C)C(=O)NCCC(C)C (stereo not drawn) [Aloxistatin]	0.143	-0.262	-0.141	0.025
Cl.c1ccc2c(c1)CCCC2C1=NCCN1 (stereo not drawn) [Tetrahydrozoline HCl]	-0.112	-0.147	-0.323	-0.177
Nc1nccc2c1ncn2[C@@H]1C=C(CO)[C@@H](O)[C@@H]1O [3-Deazaneplanocin A (DZNeP)]	0.667	0.106	-0.18	0.334
O=C1O[C@H]([C@@H](O)CO)C(O)C1O.[Na] (stereo partly drawn) [Sodium ascorbate]	-0.543	0.146	0.312	0.0411
O=C(O)CCC(=O)O.O=C(O[C@H]1CN2CCC1CC2)N1CCc2ccccc2[C@@H]1c1ccccc1 [Solifenacin succinate]	-0.504	-0.592	5.13e-16	-0.739
Cl.O=c1n(CCCN2CCN(c3cccc(Cl)c3)CC2)nc2ccccn12 [Trazodone HCl]	-0.471	-0.433	0.644	0.198
CNCc1ccc(-c2cc(-c3nc(-c4ccc(S(=O)(=O)C(C)C)cc4)cnc3N)on2)cc1	-0.361	-0.338	0.145	-0.482
COc1ccccc1N1CCN(CCN(C(=O)C2CCCCC2)c2ccccn2)CC1.Cl.Cl.Cl	-0.933	-0.452	0.028	-0.638
O=C(N/N=C/c1ccc(O)c(O)c1)c1cc2ccccc2cc1O [Dynasore]	-0.271	-0.52	-0.433	-0.415

Structure (SMILES)	OMR-Perf [1]	Prob-Test [2]	Prob-Naive [3]	Prob-Train [4]
CS(=O)(=O)c1ccc([C@@H](O)[C@@H](CO)NC(=O)C(Cl)Cl)cc1 [Thiamphenicol]	-0.308	-0.216	0	-0.198
CC(COc1ccccc1)N(CCCl)Cc1ccccc1.Cl (stereo not drawn) [Phenoxybenzamine HCl]	-0.107	-0.553	-0.427	0.157
O=C(Nc1ccc(-c2ccnc(Nc3ccc(N4CCOCC4)cc3)n2)cc1)[C@@H]1CCCN1	-0.125	-0.295	0.145	0.0437
CCOC(=O)CCNc1cc(N2CCc3ccccc3CC2)nc(-c2ccccn2)n1.Cl	-0.307	-0.772	-0.257	-1.15
CN1CCN2c3ccccc3Cc3ccccc3C2C1.Cl (stereo not drawn) [Mianserin HCl]	-1.04	-1.66	0.614	-0.564
CC(C)c1noc(N2CCC(COc3ccc(-c4ccc(S(C)(=O)=O)cc4)nc3)CC2)n1	-0.684	-1.03	-0.361	-0.821
C#Cc1cccc(Nc2ncnc3cc(OCCOC)c(OCCO)cc23)c1	-0.0244	-0.386	0.0272	-0.292
Cc1c(NC(=O)c2cccnc2)c(=O)n(-c2ccccc2)n1C [Nifenazone]	-0.0678	0.0607	-0.0812	-0.0904
CN(CCOc1ccc(CC2SC(=O)NC2=O)cc1)c1ccccn1.O=C(O)/C=C\C(=O)O (stereo not drawn) [Rosiglitazone maleate]	-0.239	-1.37	-0.714	-1.76
CCCCNc1cc(C(=O)O)cc(S(N)(=O)=O)c1Oc1ccccc1 [Bumetanide]	0.0927	0.453	-0.395	0.0134
C=C1c2c(Cl)ccc(O)c2C(O)=C2C(=O)[C@]3(O)C(O)=C(C(N)=O)C(=O)[C@@H](N(C)C)[C@@H]3[C@@H](O)[C@H]12.O=C(O)c1cc(S(=O)(=O)O)ccc1O [Meclocycline Sulfosalicylate]	0.00306	0.186	0.0876	0.597
C[C@@H](c1ncncc1F)[C@](O)(Cn1cncn1)c1ccc(F)cc1F [Voriconazole]	0.455	-0.0471	-0.391	-0.00902
CN(C)CCc1c[nH]c2ccc(CS(=O)(=O)N3CCCC3)cc12.O=C(O)CC(O)C(=O)O [Almotriptan Malate]	-0.118	-0.132	-0.226	0.233
O=c1cc(N2CCOCC2)oc2c(-c3ccccc3)cccc12	-0.0993	-0.0304	-0.371	-0.574
O=c1[nH]c(=O)n([C@@H]2C[C@H](O)[C@@H](CO)O2)cc1F [Floxuridine]	0.238	0.00987	-0.468	0.206
C[C@H]1OC(O)[C@H](O)[C@H](O)[C@H]1O.O (stereo partly drawn) [L-(+)-Rhamnose Monohydrate]	0.0693	0.479	0.285	0.135
COc1ccc2c(c1OC)C(=O)O[C@H]2[C@H]1c2c(cc3c(c2OC)OCO3)CCN1C.Cl [Noscapine HCl]	0.334	0.566	0.457	0.0945
CNCC(O)c1ccc(O)c(O)c1 (racemic) [DL-Adrenaline]	0.202	-0.0191	0.0681	-0.235
Cl.c1ccc([C@H]2CN3CCSC3=N2)cc1 [(-)-Tetramisole]	0.782	0.742	-0.0794	0.883
CC(=O)O[C@H]1C[C@@H]2CC[C@@H]3[C@@H](CC[C@]4(C)[C@H](OC(C)=O)[C@@H]([N+]5(C)CCCCC5)C[C@@H]34)[C@@]2(C)C[C@@H]1N1CCCCC1.[Br-] [Vecuronium Bromide]	-0.166	0.072	-0.12	-0.122
CN(C)CCC=C1c2ccccc2CCc2ccccc21.Cl [Amitriptyline HCl]	-1.05	-1.58	-0.161	-1.53
Cl.Cl.OCCOCCN1CCN(C(c2ccccc2)c2ccc(Cl)cc2)CC1 (stereo not drawn) [Hydroxyzine 2HCl]	-0.237	-0.33	0.389	-0.0576
CC(C)NCC(O)COc1ccc(COCCOC(C)C)cc1.O=C(O)/C=C/C(=O)O (stereo not drawn) [Bisoprolol fumarate]	-0.493	0.109	0.129	-0.399
CC(=O)Oc1ccc(C(c2ccc(OC(C)=O)cc2)c2ccccn2)cc1 [Bisacodyl]	-0.0684	0.687	-0.545	-0.304
CNC(=O)c1cccc(-c2ccc3c(N4CCOC[C@@H]4C)nc(N4CCOC[C@@H]4C)nc3n2)c1	-0.111	0.266	0.0457	0.101
COc1ccc(C2C(=O)c3ccccc3C2=O)cc1 [Anisindione]	0.101	-0.0596	-0.201	-0.187

One compound at a time, as listed above. Values in the order: OMR-Perf [1] | Prob-Test [2] | Prob-Naive [3] | Prob-Train [4]
CC(C)NCC(O)COc1ccc(COCCOC(C)C)cc1.O=C(O)/C=C/C(=O)O (stereo not drawn) [Bisoprolol fumarate] as listed: -0.493 | 0.109 | 0.129 | -0.399
CN(C)CCC=C1c2ccccc2CCc2ccccc21.Cl [Amitriptyline HCl] as listed: -1.05 | -1.58 | -0.161 | -1.53

Retrieved by structure from the entries so far:
Structure (SMILES)	OMR-Perf [1]	Prob-Test [2]	Prob-Naive [3]	Prob-Train [4]
CC(COc1ccccc1)N(CCCl)Cc1ccccc1.Cl (stereo not drawn) [Phenoxybenzamine HCl]	-0.107	-0.553	-0.427	0.157
C#Cc1cccc(Nc2ncnc3cc(OCCOC)c(OCCO)cc23)c1	-0.0244	-0.386	0.0272	-0.292
